Source: patent US20200078379A1, “DEFEROXAMINE DERIVATIVES AS MEDICAMENTS” (BIOTECHNOLOGICKY USTAV AV CR, V.V.I., priority 2017, published 2020)
At least one structure is not confirmed: it was looked up by name or label, or the drawing left a doubt.

Tested on: MCF7 cells
Test: cellular proliferation in real time, Xcelligence technology
Assay type: cell-based
Conditions: longer time points, 1-5 μM
Description: The ability of compound 2 to affect the proliferation and cell death induction in real time was monitored by the Xcelligence technology that detects changes in electrical impedance related to the cell number. In brief, special 16-well e-plates containing gold electrodes were filled with medium, blank values were recorded, and then 5.000 cells per well were seeded in the plate and let to attach for 2 hours, followed by the addition of compounds. The electrical impedance was then monitored over time in real-time every 15 minutes. In this case a line is drawn that reflects the cell number over time. […] We have seen a clear inhibition of proliferation with compound 2 at 1 μM, complete block of proliferation at 2 μM concentration, while the cytotoxic effect is seen at 5 μM (Table 9).

CC(=O)N(O)CCCCCNC(=O)CCC(=O)N(O)CCCCCNC(=O)CCC(=O)N(O)CCCCCN [DFO, deferoxamine]
effect on proliferation, in words: Only mild inhibition of proliferation
